Some of these results come from one statement about several compounds together.
Tests used:
Format in all cases: in vivo
[1] = system: soybean cyst nematode (Heterodera glycine), J2; assay: Nematicidal evaluation, soybean cyst nematode microtiter plate test; settings: 100 ppm; after 72 hours; compared to untreated controls
[2] = system: southern armyworm (Spodoptera eridania), 2nd instar larvae; assay: Southern armyworm leaf-dip test on Sieva lima bean leaf; settings: 1500 ppm; at 5 days; in comparison with untreated controls
[3] = system: 2-spotted spider mite (Tetranychus urticae, OP-resistant strain); assay: 2-spotted spider mite test, lima bean plants dipped; settings: 300 ppm; after 5 days; compared to untreated controls
[4] = system: orchid thrips (Dichromothrips corbetti) adults; assay: Orchid thrips floral-immersion test; settings: 500 ppm; after 4 days; compared to untreated controls

Compound	mortality [2]	further results
OCCNC(=S)NC1Cc2ccccc2Sc2ccccc21 (stereo not shown) [I.8]		mortality (immobility of nematodes regarded as mortality) [1]: over 95%
NC1Cc2cc(Cl)ccc2Sc2ccccc21.O=C(O)/C=C\C(=O)O (stereo not shown) [I.1]	over 50%	
CCN1CCN(C2=Cc3cccc(Cl)c3Sc3ccccc32)CC1 [I-1.44]		mortality [3]: over 50%
CCOC(=O)N1CCN(C2Cc3ccccc3Oc3ccc(Cl)cc32)CC1 (stereo not shown) [I-1.38]	over 50%	
CCN1CCN(C2Cc3ccccc3Sc3ccc(Cl)cc32)CC1 (stereo not shown) [I-1.10]		mortality [4]: over 50%
CN1CCN(C2Cc3cccc(Cl)c3Sc3ccc(Cl)cc32)CC1 (stereo not shown) [I-1.40]	over 50%	
CN1CCN(C2Cc3cc(Cl)ccc3Sc3ccc(Cl)cc32)CC1 (stereo not shown) [I-1.15]	over 50%	
CN1CCN(C2Cc3ccc(Cl)cc3Sc3ccc(Cl)cc32)CC1 (stereo not shown) [I-1.14]	over 50%	
CCN1CCN(C2Cc3ccc(F)cc3Sc3ccccc32)CC1 (stereo not shown) [I-1.25]	over 50%	
CCN1CCN(C2Cc3ccccc3Sc3ccc(Cl)cc32)CC1 (stereo not shown) [I-1.35]	over 50%	
CN1CCN(C2=Cc3cccc(F)c3Sc3ccc(Cl)cc32)CC1 [I-1.43]		mortality [3]: over 50%
CN1CCN(C2Cc3ccc(F)cc3Sc3ccccc32)CC1 (stereo not shown) [I-1.28]		mortality [3]: over 50%
CN1CCN(C2Cc3ccccc3Sc3ccc(I)cc32)CC1 (stereo not shown) [I-1.32]	over 50%	
CN1CCN(C2Cc3ccccc3Sc3cc(Cl)ccc32)CC1 (stereo not shown) [I-1.30]	over 50%	
CN1CCN(C2Cc3ccccc3Oc3ccc(Cl)cc32)CC1 (stereo not shown) [I-1.19]		mortality [4]: over 50%
NCCNC1Cc2cc(Cl)ccc2[S+]([O-])c2ccccc21.O=C(O)/C=C\C(=O)O.O=C(O)/C=C\C(=O)O (stereo not shown) [I.2]	over 50%	
CC(C)N1CCN(C2Cc3ccccc3Sc3ccc(Cl)cc32)CC1 (stereo not shown) [I-1.12]	over 50%	
CN1CCN(C2Cc3ccccc3Sc3c(Cl)cccc32)CC1 (stereo not shown) [I-1.17]	over 50%	
CC(C)(C)NC(=O)NC1Cc2ccccc2Sc2ccc(Cl)cc21 (stereo not shown) [I.3]	over 50%	

Reference: patent US20050049146A1, “Use of substituted dibenzothiepine derivatives as insecticidal, acaricidal and nematicidal agents” (priority 2001, published 2005)
